We go through one substance from patent US20130164309A1.

Chains of the proteins cited; added tags and fusions are not shown. Lines headed by an entry give the natural chain unless they say otherwise; changes in a name come on top.
UniProt Q9NPF0: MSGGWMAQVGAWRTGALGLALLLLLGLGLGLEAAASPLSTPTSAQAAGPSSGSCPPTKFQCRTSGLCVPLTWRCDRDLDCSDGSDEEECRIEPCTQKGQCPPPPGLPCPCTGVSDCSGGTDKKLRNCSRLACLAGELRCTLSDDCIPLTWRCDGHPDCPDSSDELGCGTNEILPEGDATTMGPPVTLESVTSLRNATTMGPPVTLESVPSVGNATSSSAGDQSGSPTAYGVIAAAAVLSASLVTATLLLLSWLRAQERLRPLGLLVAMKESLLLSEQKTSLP
UniProt P20062: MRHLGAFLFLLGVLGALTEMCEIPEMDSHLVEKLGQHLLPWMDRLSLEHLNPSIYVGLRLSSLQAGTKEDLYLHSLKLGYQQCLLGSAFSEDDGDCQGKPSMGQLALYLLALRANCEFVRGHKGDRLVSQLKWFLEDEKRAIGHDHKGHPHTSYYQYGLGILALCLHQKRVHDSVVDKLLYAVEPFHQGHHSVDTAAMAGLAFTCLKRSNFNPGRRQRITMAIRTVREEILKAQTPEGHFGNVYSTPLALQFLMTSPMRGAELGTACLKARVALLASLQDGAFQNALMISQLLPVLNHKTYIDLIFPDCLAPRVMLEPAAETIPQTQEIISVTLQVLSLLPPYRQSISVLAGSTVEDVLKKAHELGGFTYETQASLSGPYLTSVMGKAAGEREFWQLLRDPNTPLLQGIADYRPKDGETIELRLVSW

For this assay, the target named is recombinant extracellular domain of human TCblR (aa 32-233), untagged secreted form (human) (UniProt Q9NPF0). Put plainly: affinity purification of TCblR ECD with TC-Cbl as affinity ligand.

These are yes or no findings as the source states them, for the method shown. Some entries that bind do so weakly or less than the wild type.

In the case of “DsRed TC fusion protein saturated with Cbl (from UniProt P20062 19-427; Q9U6Y8 1-225) (ligand)”, the binding entry is given as “binds”.
